Data: US20250034219A1 (MOZZA FOODS, published 2025)
No constants are given. Whether binding was seen depends on the method and setting. Some results given as binding are weak or reduced against the parent protein; the word gives no strength. Where a sequence is shown, tags or fusion partners need not be part of it.

Target: recombinant B. taurus κ-casein expressed from pMOZ1066 (GY1 signal peptide, κ-casein, FLAG tag, 6 histidine tag, HDEL peptide) (B. taurus)
Experiment: TEM with FLAG immunogold labelling of soy embryos; micelle of αS1, β and κ casein in vivo

binding: binds
B1: recombinant B. taurus αS1-casein expressed from pMOZ1066 (GY1 signal peptide, αS1-casein, FLAG tag, 6 histidine tag, HDEL peptide) (protein)
chain: RPKHPIKHQGLPQEVLNENLLRFFVAPFPEVFGKEKVNELSKDIGSESTEDQAMEDIKQMEAESISSSEEIVPNSVEQKHIQKEDVPSERYLGYLEQLLRLKKYKVPQLEIVPNSAEERLHSMKEGIHAQQKEPMIGVNQELAYFYPELFRQFYQLDAYPSGAWYYVPLGTQYTDAPSFSDIPNPIGSENSEKTTMPLWDYKDDDDKHHHHHHHDEL
